For this test, the target named is MYC-tagged ΔHMG-SOX9 (UniProt Q04887). Kind of test: co-IP; cultured EpdSC lysates with or without DOX induction of MYC-tagged SOX9 or its variants; anti-myc tag antibody on protein-A/G magnetic beads; immunoblot for MLL4, cJUN or ARID1a.

Amino acid sequences for entries named in this document (tags omitted). A change or cut given only in a name is not applied to a line headed by its entry.
UniProt Q04887: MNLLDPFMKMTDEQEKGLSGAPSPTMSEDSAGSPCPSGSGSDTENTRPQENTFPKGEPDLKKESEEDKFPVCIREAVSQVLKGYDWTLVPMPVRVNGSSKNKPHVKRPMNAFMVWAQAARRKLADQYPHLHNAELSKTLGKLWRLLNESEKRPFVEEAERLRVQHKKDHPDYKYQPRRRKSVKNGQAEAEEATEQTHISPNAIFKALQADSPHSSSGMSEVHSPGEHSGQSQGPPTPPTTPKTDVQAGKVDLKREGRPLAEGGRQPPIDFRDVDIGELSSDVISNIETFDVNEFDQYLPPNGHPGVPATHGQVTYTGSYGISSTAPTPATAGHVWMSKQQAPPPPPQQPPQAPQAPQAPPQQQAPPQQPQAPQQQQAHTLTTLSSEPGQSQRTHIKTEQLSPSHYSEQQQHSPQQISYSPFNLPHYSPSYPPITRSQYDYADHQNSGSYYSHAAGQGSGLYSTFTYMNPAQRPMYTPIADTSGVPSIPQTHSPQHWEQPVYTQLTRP
UniProt P05627: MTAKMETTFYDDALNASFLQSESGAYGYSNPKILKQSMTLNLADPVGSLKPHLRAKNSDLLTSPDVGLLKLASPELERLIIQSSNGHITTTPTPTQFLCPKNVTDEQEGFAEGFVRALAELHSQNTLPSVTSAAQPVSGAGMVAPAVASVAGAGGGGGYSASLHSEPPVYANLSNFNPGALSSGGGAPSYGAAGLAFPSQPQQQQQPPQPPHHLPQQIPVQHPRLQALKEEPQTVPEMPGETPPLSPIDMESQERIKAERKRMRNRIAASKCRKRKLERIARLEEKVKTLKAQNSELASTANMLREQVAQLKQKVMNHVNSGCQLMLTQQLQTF
UniProt A2BH40: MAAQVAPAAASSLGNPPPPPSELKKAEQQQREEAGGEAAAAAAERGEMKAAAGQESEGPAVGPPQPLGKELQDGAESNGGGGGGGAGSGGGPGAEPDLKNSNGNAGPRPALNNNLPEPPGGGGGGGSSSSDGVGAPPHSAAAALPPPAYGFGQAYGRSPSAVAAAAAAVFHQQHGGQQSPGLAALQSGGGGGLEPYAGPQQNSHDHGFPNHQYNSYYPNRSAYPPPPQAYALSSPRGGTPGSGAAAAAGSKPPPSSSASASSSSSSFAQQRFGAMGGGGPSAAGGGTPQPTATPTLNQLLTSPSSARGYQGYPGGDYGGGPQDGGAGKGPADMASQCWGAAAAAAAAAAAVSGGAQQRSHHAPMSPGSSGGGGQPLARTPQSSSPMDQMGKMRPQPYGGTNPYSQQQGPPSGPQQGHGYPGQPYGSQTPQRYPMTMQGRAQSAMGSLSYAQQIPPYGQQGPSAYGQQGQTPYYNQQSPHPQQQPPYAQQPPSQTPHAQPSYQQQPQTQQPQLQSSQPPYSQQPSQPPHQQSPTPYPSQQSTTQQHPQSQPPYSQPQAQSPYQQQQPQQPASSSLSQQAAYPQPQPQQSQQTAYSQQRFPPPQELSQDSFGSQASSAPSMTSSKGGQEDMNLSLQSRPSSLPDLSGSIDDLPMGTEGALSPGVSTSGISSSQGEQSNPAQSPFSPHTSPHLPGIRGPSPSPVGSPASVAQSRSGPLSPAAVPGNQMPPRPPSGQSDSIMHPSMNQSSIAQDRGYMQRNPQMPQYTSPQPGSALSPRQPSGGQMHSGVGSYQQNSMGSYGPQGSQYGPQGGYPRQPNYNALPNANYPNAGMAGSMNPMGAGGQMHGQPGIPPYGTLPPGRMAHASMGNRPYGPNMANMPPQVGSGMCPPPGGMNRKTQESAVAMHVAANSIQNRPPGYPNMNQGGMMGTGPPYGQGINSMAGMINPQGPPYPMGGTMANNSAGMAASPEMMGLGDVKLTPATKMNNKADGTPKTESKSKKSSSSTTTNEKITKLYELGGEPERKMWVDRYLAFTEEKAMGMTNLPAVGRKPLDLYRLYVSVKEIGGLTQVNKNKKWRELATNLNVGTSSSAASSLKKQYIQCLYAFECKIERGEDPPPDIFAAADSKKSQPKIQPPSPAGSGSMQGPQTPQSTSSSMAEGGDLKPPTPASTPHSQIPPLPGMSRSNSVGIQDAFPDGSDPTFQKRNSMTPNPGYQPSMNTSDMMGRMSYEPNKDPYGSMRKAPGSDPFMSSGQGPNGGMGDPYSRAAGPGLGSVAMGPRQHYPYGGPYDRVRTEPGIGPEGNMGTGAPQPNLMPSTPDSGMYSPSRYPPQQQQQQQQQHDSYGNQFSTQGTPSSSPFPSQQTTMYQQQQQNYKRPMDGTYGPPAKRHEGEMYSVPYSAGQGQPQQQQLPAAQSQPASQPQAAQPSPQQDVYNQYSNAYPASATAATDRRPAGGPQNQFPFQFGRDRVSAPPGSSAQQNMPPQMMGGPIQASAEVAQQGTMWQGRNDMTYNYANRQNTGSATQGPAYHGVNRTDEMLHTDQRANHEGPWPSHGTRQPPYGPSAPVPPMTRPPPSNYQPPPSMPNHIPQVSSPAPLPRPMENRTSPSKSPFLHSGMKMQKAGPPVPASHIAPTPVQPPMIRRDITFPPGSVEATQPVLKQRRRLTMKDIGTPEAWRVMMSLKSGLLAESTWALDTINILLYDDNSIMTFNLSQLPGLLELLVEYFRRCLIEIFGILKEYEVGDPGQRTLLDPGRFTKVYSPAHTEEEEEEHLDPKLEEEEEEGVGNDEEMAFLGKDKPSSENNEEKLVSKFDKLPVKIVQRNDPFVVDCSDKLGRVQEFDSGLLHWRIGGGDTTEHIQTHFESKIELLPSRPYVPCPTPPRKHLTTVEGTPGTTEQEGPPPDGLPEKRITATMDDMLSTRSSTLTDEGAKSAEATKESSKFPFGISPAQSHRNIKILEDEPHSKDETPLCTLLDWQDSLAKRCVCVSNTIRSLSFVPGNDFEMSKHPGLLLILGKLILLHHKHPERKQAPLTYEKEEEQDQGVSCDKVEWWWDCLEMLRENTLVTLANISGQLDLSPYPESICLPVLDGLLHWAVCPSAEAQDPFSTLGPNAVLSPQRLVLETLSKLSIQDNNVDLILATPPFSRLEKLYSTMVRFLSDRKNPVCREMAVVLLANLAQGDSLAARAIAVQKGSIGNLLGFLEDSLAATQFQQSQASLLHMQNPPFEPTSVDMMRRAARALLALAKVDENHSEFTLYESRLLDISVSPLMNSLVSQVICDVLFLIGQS

Results are given in words; binding and its absence hold for the method and conditions named. Binding seen in cells or lysates may run through a third protein. A result given as binding can be weak or reduced; the word gives no strength.

In the case of c-JUN (from UniProt P05627 1-334), the binding entry was “binds”.
For ARID1a (from UniProt A2BH40 1-2283), the binding entry is “binds”.

For the origin of these results see PMC10415178.
